# Assay results reported in publication PMC5940416.
# Chains of the proteins cited; added tags and fusions are not shown.
# UniProt O95373: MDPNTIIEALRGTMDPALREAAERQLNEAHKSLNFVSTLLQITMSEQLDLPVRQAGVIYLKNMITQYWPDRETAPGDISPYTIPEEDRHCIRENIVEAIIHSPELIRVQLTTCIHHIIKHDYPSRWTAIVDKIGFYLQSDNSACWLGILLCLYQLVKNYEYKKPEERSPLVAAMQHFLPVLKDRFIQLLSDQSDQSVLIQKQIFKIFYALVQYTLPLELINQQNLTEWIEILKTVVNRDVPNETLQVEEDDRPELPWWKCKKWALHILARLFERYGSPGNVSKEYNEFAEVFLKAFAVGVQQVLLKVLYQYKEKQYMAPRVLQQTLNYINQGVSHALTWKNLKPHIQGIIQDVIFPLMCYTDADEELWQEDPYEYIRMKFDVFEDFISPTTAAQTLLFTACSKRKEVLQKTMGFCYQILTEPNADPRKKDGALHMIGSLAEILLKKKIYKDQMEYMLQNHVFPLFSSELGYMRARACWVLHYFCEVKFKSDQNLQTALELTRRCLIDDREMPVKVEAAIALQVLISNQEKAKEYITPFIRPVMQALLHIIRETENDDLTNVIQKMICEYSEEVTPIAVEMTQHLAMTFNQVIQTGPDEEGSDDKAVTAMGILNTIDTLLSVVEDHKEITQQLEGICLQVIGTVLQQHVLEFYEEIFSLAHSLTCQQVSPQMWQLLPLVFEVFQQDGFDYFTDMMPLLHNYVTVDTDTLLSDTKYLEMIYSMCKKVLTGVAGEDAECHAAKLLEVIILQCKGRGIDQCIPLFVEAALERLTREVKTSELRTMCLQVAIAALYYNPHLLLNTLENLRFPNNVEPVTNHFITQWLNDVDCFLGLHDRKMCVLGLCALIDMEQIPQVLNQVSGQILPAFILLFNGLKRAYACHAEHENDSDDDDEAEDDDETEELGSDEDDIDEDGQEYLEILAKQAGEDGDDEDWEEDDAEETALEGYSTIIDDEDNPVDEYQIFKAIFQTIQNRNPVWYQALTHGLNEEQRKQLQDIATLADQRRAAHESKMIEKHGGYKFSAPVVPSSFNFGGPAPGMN
# No constants are given. Whether binding was seen depends on the method and setting. Binding seen in cells or lysates may run through a third protein. Some binding calls cover weakened binding; strength is not graded here.
# B1: MDM2 Binding Protein (MTBP), endogenous (protein, UniProt Q96DY7 1-904)
# chain: MDRYLLLVIWGEGKFPSAASREAEHGPEVSSGEGTENQPDFTAANVYHLLKRSISASINPEDSTFPACSVGGIPGSKKWFFAVQAIYGFYQFCSSDWQEIHFDTEKDKIEDVLQTNIEECLGAVECFEEEDSNSRESLSLADLYEEAAENLHQLSDKLPAPGRAMVDIILLLSDKDPPKLKDYLPTVGALKHLREWYSAKITIAGNHCEINCQKIAEYLSANVVSLEDLRNVIDSKELWRGKIQIWERKFGFEISFPEFCLKGVTLKNFSTSNLNTDFLAKKIIPSKDKNILPKVFHYYGPALEFVQMIKLSDLPSCYMSDIEFELGLTNSTKQNSVLLLEQISSLCSKVGALFVLPCTISNILIPPPNQLSSRKWKEYIAKKPKTISVPDVEVKGECSSYYLLLQGNGNRRCKATLIHSANQINGSFALNLIHGKMKTKTEEAKLSFPFDLLSLPHFSGEQIVQREKQLANVQVLALEECLKRRKLAKQPETVSVAELKSLLVLTRKHFLDYFDAVIPKMILRKMDKIKTFNILNDFSPVEPNSSSLMETNPLEWPERHVLQNLETFEKTKQKMRTGSLPHSSEQLLGHKEGPRDSITLLDAKELLKYFTSDGLPIGDLQPLPIQKGEKTFVLTPELSPGKLQVLPFEKASVCHYHGIEYCLDDRKALERDGGFSELQSRLIRYETQTTCTRESFPVPTVLSPLPSPVVSSDPGSVPDGEVLQNELRTEVSRLKRRSKDLNCLYPRKRLVKSESSESLLSQTTGNSNHYHHHVTSRKPQTERSLPVTCPLVPIPSCETPKLATKTSSGQKSMHESKTSRQIKESRSQKHTRILKEVVTETLKKHSITETHECFTACSQRLFEISKFYLKDLKTSRGLFEEMKKTANNNAVQVIDWVLEKTSKK
# Target: importin-7/RanBP7 (IPO7) (human (endogenous in PLC/PRF/5 and Huh7)) (UniProt O95373)
# Assay: co-IP; endogenous proteins; ~200 ug whole cell lysate (IP lysis buffer, protease inhibitors) of PLC/PRF/5 and Huh7 cells, for p-Erk and IPO7 from cells infected with empty or MTBP lentiviral vector; protein-specific antibodies overnight at 4 C, protein A/G plus-agarose; western blotting; isotype controls
binder,measurement,value
B1,binding,binds
